Read-outs that look alike come from different tables or passages of the source.
What was measured:
HCVcc = assay: microbe, parasite or virus in culture; conditions: Hepatitis C virus
Excerpt: The infectious cell culture system for HCV (HCVcc) is based on a unique full length strain of genotype 2a derived from a patient with fulminant hepatitis (JFH-1). HCVcc allows the complete virus life cycle to be studied in cell culture. A chimeric strain of JFH-1, termed Jc1JFH, is capable of more robust growth in tissue culture and can be engineered to encode a reporter gene. The activity of compounds such as nilotinib against HCVcc can be investigated using a Jc1JFH reporter virus encoding luciferase (Table 1). Naïve Huh-7.5 cells are treated with serially diluted compounds in DMSO for 2 h prior to infection with HCVcc. […] Both EC50 and CC50 values are normalized to cells treated with DMSO alone.

HCVrep = assay: HCV replicon (HCVrep) luciferase assay, JFH-1-based replicon cell line; conditions: Hepatitis C virus, 72 h, read-out: HCVrep (EC50, μM)
Excerpt: HCVrep comprises a stable cell line harboring a sub-genomic replicon encoding a selectable marker (e.g., neomycin phosphotransferase), a reporter gene (e.g., luciferase) and the minimal HCV replicase proteins, NS3 to NS5B. Since the subgenomic replicon is non-infectious, the HCVrep system is used to study viral RNA replication independently of other stages of the life cycle, including virus entry/assembly/release. […] To determine the effects of compounds such as nilotinib on HCV RNA replication, a stable JFH-1-based replicon cell line encoding luciferase was established.

**Q.** For `Cc1ccc(NC(=O)c2ccc(CN3CCN(C)CC3)cc2)cc1Nc1nccc(-c2cccnc2)n1` [Imatinib, imatinib], which EC50 (HCVcc; Huh7.5) is on record?
**A.** 4.63 µM

**Q.** What about the EC50 (HCVcc; Huh7.5, read-out: HCVcc (EC50, μM)) of the same molecule?
**A.** 4.6 µM

**Q.** What about the EC50 (HCVrep) of the same molecule?
**A.** ≥ 20 µM

— patent US20140127157A1, “ANTIVIRAL ACTIVITY OF TYROSINE KINASE INHIBITORS AGAINST HEPATITUS C VIRUS” (priority 2012, published 2014)
